Here are results for two substances from paper PMC6024601.

Protein sequences, listed by entry. Tags and fused reporters are not part of them.
UniProt Q6AZ64: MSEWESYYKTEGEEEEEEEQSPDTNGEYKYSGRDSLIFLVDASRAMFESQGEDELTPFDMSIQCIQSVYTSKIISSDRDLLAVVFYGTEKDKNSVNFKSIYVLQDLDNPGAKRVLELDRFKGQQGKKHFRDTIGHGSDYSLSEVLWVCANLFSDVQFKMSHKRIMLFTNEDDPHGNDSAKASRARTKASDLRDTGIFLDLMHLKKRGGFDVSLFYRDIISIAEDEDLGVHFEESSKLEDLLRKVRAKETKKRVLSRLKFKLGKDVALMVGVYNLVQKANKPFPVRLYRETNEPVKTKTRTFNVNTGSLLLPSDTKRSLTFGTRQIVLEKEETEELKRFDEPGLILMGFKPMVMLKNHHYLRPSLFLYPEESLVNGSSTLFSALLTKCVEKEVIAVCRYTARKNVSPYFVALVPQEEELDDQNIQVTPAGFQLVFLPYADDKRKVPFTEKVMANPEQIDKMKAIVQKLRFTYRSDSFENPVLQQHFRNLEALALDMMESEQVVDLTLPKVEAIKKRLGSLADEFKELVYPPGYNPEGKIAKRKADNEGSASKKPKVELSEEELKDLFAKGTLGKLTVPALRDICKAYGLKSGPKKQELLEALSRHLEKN
UniProt Q63690: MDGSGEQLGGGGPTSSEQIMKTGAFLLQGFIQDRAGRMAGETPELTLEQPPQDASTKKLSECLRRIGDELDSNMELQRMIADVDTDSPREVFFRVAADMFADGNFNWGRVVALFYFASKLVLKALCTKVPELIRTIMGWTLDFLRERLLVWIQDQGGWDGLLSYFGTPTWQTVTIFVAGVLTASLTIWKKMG

These are yes or no findings as the source states them, for the method shown. Binding seen in cells or lysates may run through a third protein. Some results given as binding are weak or reduced against the parent protein; the word gives no strength.

For assay [1], the target named is Ku70 (rat (endogenous in Sertoli–germ cells and testes of SD rats)) (UniProt Q6AZ64). Nature of the assay: co-IP; endogenous proteins in lysate of co-cultured rat Sertoli–germ cells; cells untreated or exposed to MC-LR (36 μg/mL) with or without RES (20 μM) pretreatment; western blot.
The target in assay [2] is Bax (rat (endogenous in Sertoli–germ cells and testes of SD rats)) (UniProt Q63690). The assay can be described thus: co-IP; endogenous proteins in rat testis homogenate in RIPA buffer; 500 μg protein with 5 μg antibody (Ku70 or Bax), Protein A agarose; IP and reverse IP; rats untreated or treated with MC-LR (40 μg/kg, 14 days) with or without RES pretreatment; western blot. In general terms: A western blot detects proteins with antibodies after separation by electrophoresis.

Take Bax (from UniProt Q63690 1-192): the binding result in assay [1] is “binds”.

For Ku70 (from UniProt Q6AZ64 1-608), the binding result in assay [2] is reported as “binds”.
